{"source": "the supplement of paper PMC11438910", "test_in_all_cases": "fluorescence intensity of antibody binding to polysaccharide-coupled beads; higher = stronger binding", "key": {"[1]": {"target": "pneumococcal polysaccharide Pn7A"}, "[2]": {"target": "pneumococcal polysaccharide Pn7B"}, "[3]": {"target": "pneumococcal polysaccharide Pn7C"}, "[4]": {"target": "pneumococcal polysaccharide Pn7F"}, "[5]": {"target": "pneumococcal polysaccharide Pn8"}, "[6]": {"target": "pneumococcal polysaccharide Pn9A"}, "[7]": {"target": "pneumococcal polysaccharide Pn9L"}, "[8]": {"target": "pneumococcal polysaccharide Pn9N"}, "[9]": {"target": "pneumococcal polysaccharide Pn9V"}, "[10]": {"conditions": "antibody concentration 2.8593 ng/mL"}, "[11]": {"conditions": "antibody concentration 15.2894 ng/mL"}, "[12]": {"conditions": "antibody concentration 81.7561 ng/mL"}, "[13]": {"conditions": "antibody concentration 437.17 ng/mL"}, "[14]": {"conditions": "antibody concentration 2337.65 ng/mL"}, "[15]": {"conditions": "antibody concentration 12500 ng/mL"}, "[16]": {"conditions": "antibody concentration 0.1 ng/mL"}, "[17]": {"conditions": "antibody concentration 0.534724 ng/mL"}}, "note": "Some of the results follow. Most of these values are background signal.", "data": [{"binder": "4-80.1 (protein) chain 1: QVQLQESGPGLVKPSETLSLTCAVSGIPISTYWWSWIRQTPEKGLEWIGEIDGNGGGTNYNPSLQSRVTFSKDASKNQFSLRLNSVTAADTAVFYCARLWGNAYWGQGVLVTVSS chain 2: DVVMTQSPLSLPINPGQPASISCRSSQSLVYSDGKTYLTWYQQKPGQPPRRLIYQVSKRDSGVPDRFSGSGAGTDFTLKISRVESEDVGIYYCLQGTHLPYTFGQGTKVEIK", "values": [{"measurement": "fluorescence intensity", "setting": "[1]; [10]", "value": 19.5, "unit": "MFI"}, {"measurement": "fluorescence intensity", "setting": "[1]; [11]", "value": 19.8, "unit": "MFI"}, {"measurement": "fluorescence intensity", "setting": "[1]; [12]", "value": 22, "unit": "MFI"}, {"measurement": "fluorescence intensity", "setting": "[1]; [13]", "value": 30.8, "unit": "MFI"}, {"measurement": "fluorescence intensity", "setting": "[1]; [14]", "value": 49.5, "unit": "MFI"}, {"measurement": "fluorescence intensity", "setting": "[1]; [15]", "value": 108, "unit": "MFI"}, {"measurement": "fluorescence intensity", "setting": "[2]; [16]", "value": 16, "unit": "MFI"}, {"measurement": "fluorescence intensity", "setting": "[2]; [17]", "value": 15.8, "unit": "MFI"}, {"measurement": "fluorescence intensity", "setting": "[2]; [10]", "value": 15.2, "unit": "MFI"}, {"measurement": "fluorescence intensity", "setting": "[2]; [11]", "value": 19, "unit": "MFI"}, {"measurement": "fluorescence intensity", "setting": "[2]; [12]", "value": 23.8, "unit": "MFI"}, {"measurement": "fluorescence intensity", "setting": "[2]; [13]", "value": 151, "unit": "MFI"}, {"measurement": "fluorescence intensity", "setting": "[2]; [14]", "value": 493, "unit": "MFI"}, {"measurement": "fluorescence intensity", "setting": "[2]; [15]", "value": 856, "unit": "MFI"}, {"measurement": "fluorescence intensity", "setting": "[3]; [16]", "value": 15.5, "unit": "MFI"}, {"measurement": "fluorescence intensity", "setting": "[3]; [17]", "value": 15.8, "unit": "MFI"}, {"measurement": "fluorescence intensity", "setting": "[3]; [10]", "value": 16.5, "unit": "MFI"}, {"measurement": "fluorescence intensity", "setting": "[3]; [11]", "value": 18.5, "unit": "MFI"}, {"measurement": "fluorescence intensity", "setting": "[3]; [12]", "value": 55, "unit": "MFI"}, {"measurement": "fluorescence intensity", "setting": "[3]; [13]", "value": 484, "unit": "MFI"}, {"measurement": "fluorescence intensity", "setting": "[3]; [14]", "value": 1100, "unit": "MFI"}, {"measurement": "fluorescence intensity", "setting": "[3]; [15]", "value": 1540, "unit": "MFI"}, {"measurement": "fluorescence intensity", "setting": "[4]; [16]", "value": 14, "unit": "MFI"}, {"measurement": "fluorescence intensity", "setting": "[4]; [17]", "value": 15, "unit": "MFI"}, {"measurement": "fluorescence intensity", "setting": "[4]; [10]", "value": 15, "unit": "MFI"}, {"measurement": "fluorescence intensity", "setting": "[4]; [11]", "value": 16.5, "unit": "MFI"}, {"measurement": "fluorescence intensity", "setting": "[4]; [12]", "value": 27, "unit": "MFI"}, {"measurement": "fluorescence intensity", "setting": "[4]; [13]", "value": 87, "unit": "MFI"}, {"measurement": "fluorescence intensity", "setting": "[4]; [14]", "value": 214, "unit": "MFI"}, {"measurement": "fluorescence intensity", "setting": "[4]; [15]", "value": 356, "unit": "MFI"}, {"measurement": "fluorescence intensity", "setting": "[5]; [16]", "value": 22, "unit": "MFI"}, {"measurement": "fluorescence intensity", "setting": "[5]; [17]", "value": 23.5, "unit": "MFI"}, {"measurement": "fluorescence intensity", "setting": "[5]; [10]", "value": 22.2, "unit": "MFI"}, {"measurement": "fluorescence intensity", "setting": "[5]; [11]", "value": 24.5, "unit": "MFI"}, {"measurement": "fluorescence intensity", "setting": "[5]; [12]", "value": 25, "unit": "MFI"}, {"measurement": "fluorescence intensity", "setting": "[5]; [13]", "value": 43, "unit": "MFI"}, {"measurement": "fluorescence intensity", "setting": "[5]; [14]", "value": 74.5, "unit": "MFI"}, {"measurement": "fluorescence intensity", "setting": "[5]; [15]", "value": 120, "unit": "MFI"}, {"measurement": "fluorescence intensity", "setting": "[6]; [16]", "value": 19.2, "unit": "MFI"}, {"measurement": "fluorescence intensity", "setting": "[6]; [17]", "value": 18.2, "unit": "MFI"}, {"measurement": "fluorescence intensity", "setting": "[6]; [10]", "value": 20.5, "unit": "MFI"}, {"measurement": "fluorescence intensity", "setting": "[6]; [11]", "value": 21.5, "unit": "MFI"}, {"measurement": "fluorescence intensity", "setting": "[6]; [12]", "value": 31, "unit": "MFI"}, {"measurement": "fluorescence intensity", "setting": "[6]; [13]", "value": 106, "unit": "MFI"}, {"measurement": "fluorescence intensity", "setting": "[6]; [14]", "value": 213, "unit": "MFI"}, {"measurement": "fluorescence intensity", "setting": "[6]; [15]", "value": 370, "unit": "MFI"}, {"measurement": "fluorescence intensity", "setting": "[7]; [16]", "value": 17, "unit": "MFI"}, {"measurement": "fluorescence intensity", "setting": "[7]; [17]", "value": 16.8, "unit": "MFI"}, {"measurement": "fluorescence intensity", "setting": "[7]; [10]", "value": 16.2, "unit": "MFI"}, {"measurement": "fluorescence intensity", "setting": "[7]; [11]", "value": 16.5, "unit": "MFI"}, {"measurement": "fluorescence intensity", "setting": "[7]; [12]", "value": 18.5, "unit": "MFI"}, {"measurement": "fluorescence intensity", "setting": "[7]; [13]", "value": 44.5, "unit": "MFI"}, {"measurement": "fluorescence intensity", "setting": "[7]; [14]", "value": 141, "unit": "MFI"}, {"measurement": "fluorescence intensity", "setting": "[7]; [15]", "value": 313, "unit": "MFI"}, {"measurement": "fluorescence intensity", "setting": "[8]; [16]", "value": 15.8, "unit": "MFI"}, {"measurement": "fluorescence intensity", "setting": "[8]; [17]", "value": 16.5, "unit": "MFI"}, {"measurement": "fluorescence intensity", "setting": "[8]; [10]", "value": 15.8, "unit": "MFI"}, {"measurement": "fluorescence intensity", "setting": "[8]; [11]", "value": 19, "unit": "MFI"}, {"measurement": "fluorescence intensity", "setting": "[8]; [12]", "value": 51.5, "unit": "MFI"}, {"measurement": "fluorescence intensity", "setting": "[8]; [13]", "value": 458, "unit": "MFI"}, {"measurement": "fluorescence intensity", "setting": "[8]; [14]", "value": 1100, "unit": "MFI"}, {"measurement": "fluorescence intensity", "setting": "[8]; [15]", "value": 1540, "unit": "MFI"}, {"measurement": "fluorescence intensity", "setting": "[9]; [16]", "value": 16.8, "unit": "MFI"}, {"measurement": "fluorescence intensity", "setting": "[9]; [17]", "value": 16.8, "unit": "MFI"}, {"measurement": "fluorescence intensity", "setting": "[9]; [10]", "value": 24.5, "unit": "MFI"}, {"measurement": "fluorescence intensity", "setting": "[9]; [11]", "value": 107, "unit": "MFI"}, {"measurement": "fluorescence intensity", "setting": "[9]; [12]", "value": 552, "unit": "MFI"}, {"measurement": "fluorescence intensity", "setting": "[9]; [13]", "value": 1670, "unit": "MFI"}, {"measurement": "fluorescence intensity", "setting": "[9]; [14]", "value": 2240, "unit": "MFI"}, {"measurement": "fluorescence intensity", "setting": "[9]; [15]", "value": 2450, "unit": "MFI"}]}]}
